Data as given in article PMC12255034.
Construct, isoform or probe ends are uncertain for at least one entry. The comparison behind a weaker result is the experiment's own reference, which may not be listed here. At least one verdict was read from the data and is not stated in words by the source.

Tested on: LARK
Experiment: EMSA
Details: K+, EMSA: 2 uM 5' 6-FAM probe annealed to form G4 (with K+), 2 ug LARK or 1 ug BG4, binding buffer, pH and temperature not given (ref 60), recombinant protein, label: 5' 6-FAM, folded or branched DNA

“CCAGTGCGGGGCGCGAGGGGGCCGAGGGGCGGGGCAACAA [POUM2-C14]”: binds more weakly (5mC at C14).
“CCAGTGCGGGGCGCGAGGGGGCCGAGGGGCGGGGCAACAA [POUM2-C7]”: binds more weakly (5mC at C7).
“CCAGTGCGGGGCGCGAGGGGGCCGAGGGGCGGGGCAACAA [POUM2-WT]”: binds (cited from earlier work).
“CCAGTGCGGGGCGCGAGGGGGCCGAGGGGCGGGGCAACAA [POUM2-C35]”: binds more weakly (5mC at C35).
